Measured values from patent US20250367308A1, “LIGAND-DRUG CONJUGATE OF CAMPTOTHECIN ANALOGS, INTERMEDIATES, PREPARATION METHOD THEREFOR, PHARMACEUTICAL COMPOSITION AND APPLICATION THEREOF” (SHANGHAI MICURX PHARMACEUTICAL CO.,LTD., priority 2022, published 2025).
Some of these results come from one statement about several compounds together.

What follows are compounds tested on Human lung adenocarcinoma cell line A549 (assay: In vitro cytotoxicity test of camptothecin payloads (CellTiter-Glo)). Settings: fold versus Dxd.
Assay type: cell-based
Procedure: Human lung adenocarcinoma cell line A549 was used to evaluate the cytotoxicity of small molecule fragment of the present invention. A549 cells were seeded to a 96-well plate at 2000 cells per well.
CC[C@@]1(O)C(=O)OCc2c1cc1n(c2=O)Cc2c-1nc1cc(F)c(C)cc1c2CN1CCC(CCO)CC1 [Example 27, (S)-4-ethyl-8-fluoro-4-hydroxy-11-((4-(2-hydroxyethyl)piperidin-1-yl)methyl)-9-methyl-1H-pyrano[3′,4′:6,7] indolizino[1,2-b]quinoline-3,14(4H,12H)-dione] was tested, and the “potency higher than the comparator compound (Dxd)” value was 5˜6 ×. With CC[C@@]1(O)C(=O)OCc2c1cc1n(c2=O)Cc2c-1nc1cc(F)c(C)cc1c2CN1CCC2(CC1)CC(O)C2 [Example 31, (S)-4-ethyl-8-fluoro-4-hydroxy-11-((2-hydroxy-7-azaspiro[3.5]nonan-7-yl)methyl)-9-methyl-1H-pyrano[3′,4′:6,7] indolizino[1,2-b]quinoline-3,14(4H,12H)-dione] the “potency higher than the comparator compound (Dxd)” value was 5˜6 ×. For CC[C@@]1(O)C(=O)OCc2c1cc1n(c2=O)Cc2c-1nc1cc(F)c(C)cc1c2CN1CCC[C@H](O)C1 [Example 19, (S)-4-ethyl-8-fluoro-4-hydroxy-11-(((S)-3-hydroxypiperidin-1-yl)methyl)-9-methyl-1H-pyrano[3′,4′:6,7] indolizino[1,2-b]quinoline-3,14(4H,12H)-dione], the “potency higher than the comparator compound (Dxd)” value was 5˜6 ×. For CC[C@@]1(O)C(=O)OCc2c1cc1n(c2=O)Cc2c-1nc1cc(F)c(C)cc1c2CN1CC(C)(C)C[C@@H]1CO [Example 22, (S)-4-ethyl-8-fluoro-4-hydroxy-11-(((R)-2-(hydroxymethyl)-4,4-dimethylpyrrolidin-1-yl)methyl)-9-methyl-1H-pyrano[3′,4′:6,7] indolizino[1,2-b]quinoline-3,14(4H,12H)-dione], the “potency higher than the comparator compound (Dxd)” value was 5˜6 ×. In the case of CC[C@@]1(O)C(=O)OCc2c1cc1n(c2=O)Cc2c-1nc1cc(F)c(C)cc1c2CN1CCC2(CCC2O)CC1 (stereo partly drawn) [Example 32, (4S)-4-ethyl-8-fluoro-4-hydroxy-11-((1-hydroxy-7-azaspiro[3.5]nonan-7-yl)methyl)-9-methyl-1H-pyrano[3′,4′:6,7] indolizino[1,2-b]quinoline-3,14(4H,12H)-dione], the “potency higher than the comparator compound (Dxd)” value is reported as 5˜6 ×. For CC[C@@]1(O)C(=O)OCc2c1cc1n(c2=O)Cc2c-1nc1cc(F)c(C)cc1c2CN1CCC([C@@H](C)O)CC1 [Example 15, (S)-4-ethyl-8-fluoro-4-hydroxy-11-((4-((R)-1-hydroxyethyl)piperidin-1-yl)methyl)-9-methyl-1H-pyrano[3′,4′:6,7] indolizino[1,2-b]quinoline-3,14(4H,12H)-dione], the “potency higher than the comparator compound (Dxd)” value was 5˜6 ×. For CC[C@@]1(O)C(=O)OCc2c1cc1n(c2=O)Cc2c-1nc1cc(F)c(C)cc1c2CN1C[C@H]2CC[C@@H](C1)C2O (stereo partly drawn) [Example 33, (4S)-4-ethyl-8-fluoro-4-hydroxy-11-(((1R,5S)-8-hydroxy-3-azabicyclo[3.2.1]octan-3-yl)methyl)-9-methyl-1H-pyrano[3′,4′:6,7] indolizino[1,2-b]quinoline-3,14(4H,12H)-dione], the “potency higher than the comparator compound (Dxd)” value was 5˜6 ×.
